Results of single-concentration screens

Measurements from “University of Dundee, Small-Polar-MMV Screening Library” (2021), ChEMBL document CHEMBL3988442.

The filed quantity is “Percent Effect” (%). The record does not define 0% and 100%; most values in the screen are far below 50% and negative numbers occur (in some assays of this library far below -100). Compounds were drawn at random from those tested, without regard to their results. Two or more numbers in one place are separate tests of the same structure; such repeats can differ widely.

A: 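Growth of Mycobacterium tuberculosis over 3 days (7H9 medium with glucose and tyloxapol); the read-out is not stated. Compounds at 50 µM. Higher reads as more growth inhibition (inferred: compounds with an IC50 in retests scored well above the rest). Of about 69,000 compounds tested this way, about 760 (1.1%) reached 50% or more in at least one test.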
B: 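Whole-cell growth test on Mycobacterium tuberculosis, read after 4 days in a medium based on cholesterol and the lipid DPPC; the read-out is not stated. Compounds at 50 µM. Higher reads as more growth inhibition (inferred: compounds with an IC50 in retests scored well above the rest). About 69,000 compounds were tested under these conditions; 0.54% (about 370) showed 50% or more at least once.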

| Compound | A | B |
|---|---|---|
| `O=C(O)C(F)(F)F.c1cnc(N2CCC3(CC2)CN(CC2CC2)c2ccccc23)nc1` | 45.94% | 15.6% |
| `CC(NC(=O)N1CCCN(CC(F)F)CC1)c1ccco1` (centres undefined) | -11.07% | -9.017% |
| `O=C(NCCn1ccc(-c2ccncc2)n1)c1ccc2c(c1)OCO2` | -0.124% | 0.9698% |
| `CC(C)c1nnc2ccc(N3CCC(C(N)=O)CC3)nn12` | 10.26% | -12.09% |
| `[H][C@@]12C[C@H](c3ccncn3)O[C@@]1([H])CCN(c1ccc(C)nn1)C2` | -0.9126% & -3.269% | -9.376% |
| `CC(=O)N[C@@H]1CN(C2CCN(c3cccc(Cl)c3)CC2)C[C@H]1C(C)C` | 4.975% | 1.118% |
| `COc1ccc(C2CC(=O)NCc3nc(N(C)C)sc32)c(O)c1` (centres undefined) | -15.86% | -12.36% |
| `Cc1cnc2n1CCN(C)C21CCN(C(=O)CC(C)C)CC1.O=C(O)C(F)(F)F` | 15.82% | 10.14% |
| `CC(=O)N1CCC(c2nccnc2C)CC1` | -8.307% | 0.9716% & -6.454% |
| `Cc1cn2c(n1)CCC(NC(=O)c1cnc(C)nc1C(C)C)C2` (centres undefined) | -3.154% | -2.045% |
| `O=C(O)C(F)(F)F.O=C(O)C(F)(F)F.O=C1CC2(CCN(Cc3cccnc3)C2)CN1c1ccc2c(c1)OCO2` (centres undefined) | -12.75% | -30.2% |
| `O=C(O)C(F)(F)F.[H][C@@]12CN(C(=O)c3ccnnc3)C[C@]1([H])C(=O)N(Cc1csc(C)n1)C2` | -20.9% | -2.514% |
| `Cc1n[nH]c(C)c1CCCN(C)Cc1c[nH]nc1-c1ccc(F)cc1` | -0.4496% | -6.39% |
| `O=C(CCN1CCC(C(=O)c2cc(F)ccc2F)CC1)NC1CCCC1` | -8.464% | -6.796% |
| `CCS(=O)(=O)N1CCCCC1c1nc(C)no1` (centres undefined) | 9.511% | -1.797% |
| `CN1CCN(c2ccnc3c(F)cc(Br)cc23)CC1` | 39.04% | 38.47% |
| `CC(C(=O)Nc1cccc(C(F)(F)F)c1)N(C)CCN1CCOCC1` (centres undefined) | -0.6185% & -16.09% | -9.184% |
| `Cc1nc(CN2CCC(NS(C)(=O)=O)CC2)co1` | 0.7448% & 60.76% | -6.424% |
| `COC[C@H]1CCC[C@]12CN(C(=O)NCc1ccccc1)CCO2` | -6.695% | 10.07% |
| `Cn1cc(C(=O)N2CCCC2c2ccc3c(c2)OCO3)ccc1=O` (centres undefined) | -7.671% | -0.7831% |
| `Cc1ccc(CNC(=O)N2CCCC(NS(C)(=O)=O)C2)cc1` (centres undefined) | 6.176% | -3.512% |
| `OC1(CN2CCCCC2)CCN(c2nccc(C(F)(F)F)n2)C1` (centres undefined) | -14.22% & 2.244% | 5.095% |
| `CCOC(=O)N1CCN(C(=O)Cn2ccc3ncccc3c2=O)CC1` | -13.27% & -0.4295% | 0.5705% |
| `[H][C@]12CC[C@]([H])(CN(Cc3c(C)noc3C)C1)N(Cc1csc(C(C)=O)c1)C2` | -16.16% | -5.965% |
| `[H][C@@]12COC[C@@H](CC(=O)NCCOC)[C@]1([H])CN(C(=O)C1CCOCC1)C2` | -17.62% | -14.01% |
| `O=C(O)C(F)(F)F.[H][C@@]12CCCO[C@]1([H])[C@H](OCc1cccnc1)CN2C(=O)C1CC=CC1` | -26.83% | -16.97% |
| `COCCNC(=O)c1nc2c(s1)CCCN2c1ccc(C)nn1` | -21.47% & -11.44% | -14.35% |
| `[H][C@@]12CN(Cc3nccn3C)C(=O)N1CCN(S(=O)(=O)c1ccccc1)C2` | -2.609% & 26.84% | 2.022% |
| `Cc1ccc(CC(=O)N(C)CC2(O)CCN(c3ccccn3)C2)s1` (centres undefined) | -7.847% | -10.28% |
| `CCS(=O)(=O)CC(=O)N1CCCC(c2noc(C(C)C)n2)C1` (centres undefined) | 1.683% & -2.378% | -1.359% |
| `CC(=O)NCC1CCCN(Cc2nc(Cc3ccccc3F)no2)C1` (centres undefined) | 2.566% | -18.58% |
| `CC(C(N)=O)N(C)CCCc1cc(-c2ccccc2)no1` (centres undefined) | -4.056% | -9.272% |
| `Cc1ccccc1-c1cc(NC(=O)Cn2ccccc2=O)n(C)n1` | -4.203% | -2.192% |
| `O=C(NCCCn1ccnc1)N1CCCC1c1cccs1` (centres undefined) | 1.497% | -1.738% |
| `Clc1ccc(NCc2nnc(C3CC3)o2)cc1Cl` | 47.69% | 45.16% |
| `CCn1cc(CN2CCC(NS(C)(=O)=O)CC2)cc1C#N` | -22.19% | -17.13% |
| `CCn1cc(CN(C)S(=O)(=O)c2cc(Cl)ccc2Cl)cn1` | 19.46% | -19.24% |
| `O=C(COc1cccc2c1CCC2=O)NCc1ccccc1F` | -0.3817% & 15.66% | -9.402% |
| `O=C(COCc1ccccc1)N1CCC(OCc2cccnc2)CC1` | -9.605% | -25.52% |
| `CC(=O)Nc1cc2c(cc1C)OCO2` | -3.817% & -31.09% | -21.43% |
| `N#Cc1ccccc1N1CCN(CCC(=O)N2CCOCC2)CC1` | -1.518% | -12.29% |
| `Cc1cnn(CCC(=O)NC2CCc3nc(C)cn3C2)c1` (centres undefined) | -20.68% | -2.907% |
| `N#Cc1c(F)cccc1N1CCCC(C(=O)Nc2nncs2)C1` (centres undefined) | 19.04% | 8.706% |
| `CCc1ncc2c(n1)CN(C(=O)CNC(=O)c1ccccc1)C2` | 16.62% & -7.354% | -21.55% |
| `COc1cccc(CN(C)c2ncc(C(N)=O)cc2Cl)c1` | 34.12% | 12.95% |
| `CCc1n[nH]c(C2CN(C(=O)c3nc(C)n4ccccc34)CCO2)n1` (centres undefined) | -4.331% | -10% |
| `O=C(CSCC1CC1)N1CCc2[nH]nc(COc3ccccc3)c2C1` | 24.53% | -15.93% |
| `CCSc1ncc(Cl)c(C(=O)NC(CCSC)C(=O)O)n1` (centres undefined) | 3.229% | -11.49% |
| `Cc1c(Br)cccc1CNC1(CCO)CCOCC1` | -7.748% | -20.21% |
| `COc1ccc(Cc2noc(-c3ccc(NC(C)CO)nc3)n2)cc1` (centres undefined) | 23.04% | 13.95% |
| `Cc1cc(NC(=O)N(C)C2CCCN(c3ccccc3)C2=O)n(C)n1` (centres undefined) | -4.729% & 0.4797% | -0.5894% |
| `Cc1csc2c(C3CCCN(C(=O)CCn4ccnc4)C3)nc(C)n12` (centres undefined) | -31.25% | -24.15% |
| `Cc1cc(C(=O)NCC2(N(C)C)CCCC2)c(C)n1-c1cccnc1` | -45.55% | -15.82% |
| `COC(=O)c1cccc(S(=O)(=O)NC(=O)c2ccccc2F)c1` | -45.32% | -20.75% |
| `CCC(=O)N(CC)CCc1nccs1` | 22.06% | 7.8% |
| `CC(=O)N[C@@H](C)C(=O)NCc1cccnc1Oc1ccccc1F` | -45.48% | -23.27% |
| `Cc1ccc(C(C)(O)CNC(=O)CCn2ccnc2C(C)C)o1` (centres undefined) | 6.921% | -14.73% |
| `Cc1cc(CN2CCN(c3nn4cc(C)nc4s3)CC2)on1` | 3.787% | 3.265% |

Repeated from the top, 5 entries:

Result for O=C(O)C(F)(F)F.c1cnc(N2CCC3(CC2)CN(CC2CC2)c2ccccc23)nc1 was A: 45.94%; B: 15.6%.
Result for CC(NC(=O)N1CCCN(CC(F)F)CC1)c1ccco1 (centres undefined) was A: -11.07%; B: -9.017%.
Result for O=C(NCCn1ccc(-c2ccncc2)n1)c1ccc2c(c1)OCO2 was A: -0.124%; B: 0.9698%.
Result for CC(C)c1nnc2ccc(N3CCC(C(N)=O)CC3)nn12 was A: 10.26%; B: -12.09%.
Result for [H][C@@]12C[C@H](c3ccncn3)O[C@@]1([H])CCN(c1ccc(C)nn1)C2 was A: -0.9126% & -3.269%; B: -9.376%.